PubChem BioAssay AID743454, Peter MacCallum Cancer Centre | 2014

Screen: 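Search for knock-downs that restore vorinostat killing in resistant colon cancer cells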 (primary screen)
System: human HCT116-VR colon cancer cells, selected for vorinostat resistance
Reagents: siRNA pool against human genes, 40 nM siRNA pool
Timing: vorinostat for 24 h, read-out about 72 h after transfection
Treatment: vorinostat at 2.5 µM final
Read-out: 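Cell viability by CellTiter-Fluor and caspase 3/7 activity by luminescence, each scaled to mock wells per plate, duplicates averaged, then robust z-scored over all plates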
Direction: viability robust z-score: higher = more viable cells than screen typical; caspase robust z-score: higher = more caspase 3/7 activity than screen typical
Hit rule: 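a knock-down is a hit when classed RV1 or RV2 for lowered viability, or CA1 or CA2 for caspase activation; those lethal without drug were dropped; hits were retested singly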
This is a random part of about 18,000 deposited reagents. 450 of all reagents (2.5%) count as active. 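Single biological run; no consistent viability z cut-off exists, so the class columns, not z-scores, define the calls.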

no.	target gene	viability hit class	caspase hit class	viability robust z-score	caspase robust z-score	Outcome
1	ARHGEF1 (Rho guanine nucleotide exchange factor 1)	no change	no change	0.58	0.94	inactive
2	STH (saitohin)	no change	no change	-0.42	0.72	inactive
3	TBC1D24 (TBC1 domain family member 24)	no change	no change	-1.23	4.46	inactive
4	EDNRA (endothelin receptor type A)	no change	no change	1.06	0.8	inactive
5	ZBTB17 (zinc finger and BTB domain containing 17)	no change	no change	-1.16	1.14	inactive
6	MRPL36 (mitochondrial ribosomal protein L36)	no change	no change	0.7	-0.45	inactive
7	SULT1C2 (sulfotransferase family 1C member 2)	no change	no change	-0.8	-1.25	inactive
8	KEAP1 (kelch like ECH associated protein 1)	no change	no change	0.18	0.15	inactive
9	RGS6 (regulator of G protein signaling 6)	no change	no change	0.74	-1.17	inactive
10	VAMP2 (vesicle associated membrane protein 2)	no change	no change	0.04	0	inactive
11	GZMB (granzyme B)	no change	no change	-1.58	3.05	inactive
12	SCFD2 (sec1 family domain containing 2)	no change	no change	0.92	-1.12	inactive
13	DYNC2I1 (dynein 2 intermediate chain 1)	no change	no change	0.39	0.97	inactive
14	UBE2A (ubiquitin conjugating enzyme E2 A)	no change	no change	0.21	-0.34	inactive
15	SCARF1 (scavenger receptor class F member 1)	no change	no change	-1.55	3.25	inactive
16	RAP1GAP (RAP1 GTPase activating protein)	no change	no change	0.29	-0.74	inactive
17	TPRG1 (tumor protein p63 regulated 1)	no change	no change	0.4	-0.75	inactive
18	HECTD1 (HECT domain E3 ubiquitin protein ligase 1)	no change	no change	-1.45	-0.96	inactive
19	NHERF4 (NHERF family PDZ scaffold protein 4)	no change	no change	0.97	-0.94	inactive
20	POMK (protein O-mannose kinase)	no change	no change	0.14	-0.55	inactive
21	KLF16 (KLF transcription factor 16)	no change	no change	-3.12	-0.36	inactive
22	KMT5B (lysine methyltransferase 5B)	no change	no change	-0.12	2.64	inactive
23	SLC5A8	no change	no change	0.06	-1.16	inactive
24	CLEC4D (C-type lectin domain family 4 member D)	no change	no change	-0.32	-0.04	inactive
25	PRSS54 (serine protease 54)	no change	no change	0.44	-1.03	inactive
26	MUL1 (mitochondrial E3 ubiquitin protein ligase 1)	no change	no change	0.64	0.44	inactive
27	CIZ1 (CDKN1A interacting zinc finger protein 1)	no change	no change	-0.48	0.47	inactive
28	ATP6V1D (ATPase H+ transporting V1 subunit D)	no change	no change	-0.7	-0.21	inactive
29	TDRKH (tudor and KH domain containing)	no change	no change	1.11	-0.36	inactive
30	AXDND1 (axonemal dynein light chain domain containing 1)	no change	no change	-0.2	-0.42	inactive
31	GSX2 (GS homeobox 2)	no change	CA1 (caspase activation)	0.06	5.61	active
32	H4C4 (H4 clustered histone 4)	no change	no change	-1.08	0.16	inactive
33	SLC50A1	no change	no change	1.42	-0.16	inactive
34	ATP9B (ATPase phospholipid transporting 9B)	no change	no change	0.28	-0.68	inactive
35	AUNIP (aurora kinase A and ninein interacting protein)	no change	no change	0.77	-0.14	inactive
36	ACOT7 (acyl-CoA thioesterase 7)	no change	no change	-0.99	0.17	inactive
37	TLR10 (toll like receptor 10)	no change	no change	-0.93	0.02	inactive
38	FBXO45 (F-box protein 45)	no change	no change	0.26	0.31	inactive
39	NUP85 (nucleoporin 85)	no change	CA1 (caspase activation)	-0.5	5.49	active
40	NRM (nurim)	no change	no change	0.82	-1.08	inactive
41	MRPL35 (mitochondrial ribosomal protein L35)	no change	no change	0.62	-0.54	inactive
42	ERLIN1 (ER lipid raft associated 1)	no change	no change	0.01	-0.74	inactive
43	MEGF6 (multiple EGF like domains 6)	no change	no change	-2.79	1.65	inactive
44	LPXN (leupaxin)	no change	no change	-0.14	-0.43	inactive
45	CLVS1 (clavesin 1)	no change	no change	-0.57	-1.03	inactive
46	UTP6 (UTP6 small subunit processome component)	no change	no change	-2.52	-0.55	inactive
47	POP7 (POP7 ribonuclease P/MRP subunit)	no change	no change	-0.06	-0.4	inactive
48	DRP2 (dystrophin related protein 2)	no change	no change	0.76	-0.66	inactive
49	NFATC1 (nuclear factor of activated T cells 1)	no change	no change	-0.28	-0.42	inactive
50	EIF1AX (eukaryotic translation initiation factor 1A X-linked)	RV2 (reduced viability)	no change	-2.91	0.47	active
51	SPIN4 (spindlin family member 4)	no change	no change	0.01	-0.88	inactive
52	SPTLC2 (serine palmitoyltransferase long chain base subunit 2)	no change	no change	-0.72	0.67	inactive
53	SEBOX (SEBOX homeobox)	no change	no change	-0.52	-1.05	inactive
54	RARG (retinoic acid receptor gamma)	no change	no change	-1.46	0.18	inactive
55	MAPK8IP2 (mitogen-activated protein kinase 8 interacting protein 2)	no change	no change	-0.43	-0.49	inactive
56	TAS2R1 (taste 2 receptor member 1)	no change	no change	0.7	-0.28	inactive
57	OTOG (otogelin)	no change	no change	-0.47	0.99	inactive

Reformatted: entries from further up
ZBTB17 (zinc finger and BTB domain containing 17)
- viability hit class: no change
- caspase hit class: no change
- viability robust z-score: -1.16
- caspase robust z-score: 1.14
- Outcome: inactive

MRPL36 (mitochondrial ribosomal protein L36)
- viability hit class: no change
- caspase hit class: no change
- viability robust z-score: 0.7
- caspase robust z-score: -0.45
- Outcome: inactive

SULT1C2 (sulfotransferase family 1C member 2)
- viability hit class: no change
- caspase hit class: no change
- viability robust z-score: -0.8
- caspase robust z-score: -1.25
- Outcome: inactive

KEAP1 (kelch like ECH associated protein 1)
- viability hit class: no change
- caspase hit class: no change
- viability robust z-score: 0.18
- caspase robust z-score: 0.15
- Outcome: inactive

RGS6 (regulator of G protein signaling 6)
- viability hit class: no change
- caspase hit class: no change
- viability robust z-score: 0.74
- caspase robust z-score: -1.17
- Outcome: inactive
